# PubChem BioAssay AID2551 (National Center for Advancing Translational Sciences (NCATS), 2010)
# By UniProt entry, the sequences of proteins in these tests, tags left out. Where a name states a change or a piece, a line headed by the entry shows the natural chain unless it says otherwise.
# UniProt P51450: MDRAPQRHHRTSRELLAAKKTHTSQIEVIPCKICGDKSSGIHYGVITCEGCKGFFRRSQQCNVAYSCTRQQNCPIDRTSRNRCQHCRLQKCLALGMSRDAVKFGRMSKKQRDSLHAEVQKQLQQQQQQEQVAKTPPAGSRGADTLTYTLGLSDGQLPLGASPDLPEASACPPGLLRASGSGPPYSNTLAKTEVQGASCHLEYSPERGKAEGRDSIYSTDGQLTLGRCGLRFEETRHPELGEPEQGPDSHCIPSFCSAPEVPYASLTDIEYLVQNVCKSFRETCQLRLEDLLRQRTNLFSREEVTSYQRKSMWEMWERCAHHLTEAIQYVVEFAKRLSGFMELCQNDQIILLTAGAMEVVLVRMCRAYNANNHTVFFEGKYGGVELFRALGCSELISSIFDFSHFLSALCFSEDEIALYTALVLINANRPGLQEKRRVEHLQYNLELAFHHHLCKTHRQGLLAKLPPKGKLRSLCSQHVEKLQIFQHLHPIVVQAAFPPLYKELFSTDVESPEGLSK
# Screen size: about 310,000 compounds; about 17,000 (5.5%) were called active. The inconclusive results got no clear call from the source; some entries with a clear call stand among them for comparison. The call rests on the fitted dose curve; in most records, active means well fitted inhibition curve with a large enough effect; inconclusive means small, poorly fitted or top-dose-only effect, or effect the other way; inactive means no such curve, though single readings can be large or run the other way. A potency beside an inconclusive call is a rough fit, not a confirmed value.
# Molecular target: Nuclear receptor ROR-gamma (Mus musculus) (UniProt P51450)
# Assay: qHTS for inhibitors of ROR gamma transcriptional activity; further: nearly all actives have a fitted effect of over 60% in size
# Conditions: Drosophila S2 Gal4-RORgamma UAS-luciferase reporter, 20 h; activity change, negative = inhibition: at 53.6 µM (top of the series)
# Procedure, shortened: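 Drosophila S2 cells stably expressing Gal4-DBD/mouse RORγ fusion under metallothionein promoter plus UAS-luciferase; compound 1 h, then 700 uM CuSO4 induction for 20 h at ambient temperature; inhibition read as reduced luminescence.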
# On the % scale 0 is the no-effect control and ±100 the full control effect; potency means the concentration at half of the fitted maximal effect.
SMILES,Potency,"activity change, negative = inhibition"
CCc1cc(=O)oc2cc(C)cc(OCC(C)=O)c12,"inconclusive: 6.31 µM [inhibitor, single point]",
CCn1c(O)c(N=NC(=O)c2cccc(S(=O)(=O)N3CCCCC3)c2)c2ccccc21,"inconclusive: 6.31 µM [activator, single point]",
O=C(NCC1CCCO1)c1cc2c([nH]c3ccccc32)c(-c2cccc(Br)c2)n1 (centres undefined),"inconclusive: 31.6 µM [activator, single point]",
COc1ccc(-n2nnnc2-c2cnc3cc4c(cc3c2C)OCO4)cc1,"inconclusive: 11.2 µM [activator, partial curve]",
CCOC(=O)CC(=O)CSc1nc2c(cc1C#N)CCC2,"inconclusive: 22.4 µM [inhibitor, single point]",
O=c1c2ccccc2sn1-c1cc(S(=O)(=O)N2CCOCC2)ccc1N1CCCC1,,inactive: 1.87%
O=C(CSc1ncccn1)Nc1ncc(C(F)(F)F)cc1Cl,"inconclusive: 6.31 µM [inhibitor, single point]",
Cc1ccc(S(=O)(=O)NCc2ccccn2)c(C)c1C,"inconclusive: 5.01 µM [inhibitor, single point]",
Clc1ccc(N2COC3c4cccc5cccc(c45)C32)cc1 (centres undefined),,inactive: 12.2%
O=C(/C=C/c1ccco1)Nc1ccc(Oc2ccccc2)cc1,"inconclusive: 0.794 µM [activator, full curve, poor fit]",
Nc1ncnc2nc(SCCOc3ccc(Cl)cc3)[nH]c12,"inconclusive: 35.5 µM [activator, single point]",
CCc1nnc(NC(=O)CSc2nnc(-c3ccccc3OC)n2-c2ccccc2)s1,"inconclusive: 12.6 µM [activator, partial curve]",
CCOc1ccc(Nc2nc(Cc3nnc(SCC(=O)N(CC)CC)n3C)cs2)cc1,"inconclusive: 10 µM [inhibitor, partial curve, poor fit]",
CC1(C)CC(C)(c2ccc(O)cc2O)N(c2ccc3ccccc3c2)C(=S)N1 (centres undefined),active: 7.94 µM,
CCOc1cc(/C=N/Nc2nc(N3CCCCC3)nc(N3CCCCC3)n2)ccc1OC(=O)c1ccco1,"inconclusive: 35.5 µM [inhibitor, single point]",
O=C(/C=C/Nc1ccc([N+](=O)[O-])cc1Br)c1cccc2ccccc12,active: 2.51 µM,
CC(C)(C)C(=O)OCc1nc(-c2ccc(C(F)(F)F)cc2)cs1,,inactive: 43.3%
CCOc1cccc(-c2c(C(=O)N/N=C/c3ccoc3)nnn2-c2nonc2N)c1,active: 10 µM,
O=C(CN1C(=O)/C(=C\c2ccc(C(F)(F)F)cc2)Sc2ccccc21)NCc1ccco1,"inconclusive: 5.62 µM [activator, full curve]",
CCCCCn1c(=O)c(F)cn(Cc2ccc(OC)c([N+](=O)[O-])c2)c1=O,"inconclusive: 17.8 µM [activator, single point]",
Cc1cc(OC(F)F)ccc1NC(=S)NC1CCCC1,active: 2.51 µM,
O=C(Nc1cccc(F)c1)c1cc(S(=O)(=O)NCCC2=CCCCC2)ccc1F,"inconclusive: 22.4 µM [activator, single point]",
Cc1cc(-c2n[nH]c(=S)n2Cc2ccco2)nn1C,"inconclusive: 17.8 µM [inhibitor, single point]",
CC1=C(C(=O)O)N2C(=O)C(NC(=O)C(N)C3=CCC=CC3)C2SC1 (centres undefined),,inactive: 29.2%
Cc1nn(Cc2ccccc2)c(C)c1NC(=O)c1ccc([N+](=O)[O-])cc1[N+](=O)[O-],"inconclusive: 12.6 µM [inhibitor, partial curve, poor fit]",

# In the list so far, 16 contain nitrogen in an aromatic ring.
SMILES,Potency,"activity change, negative = inhibition"
CCn1c(O)c(N=NC(=O)c2cccc(S(=O)(=O)N3CCCCC3)c2)c2ccccc21,"inconclusive: 6.31 µM [activator, single point]",
O=C(NCC1CCCO1)c1cc2c([nH]c3ccccc32)c(-c2cccc(Br)c2)n1 (centres undefined),"inconclusive: 31.6 µM [activator, single point]",
COc1ccc(-n2nnnc2-c2cnc3cc4c(cc3c2C)OCO4)cc1,"inconclusive: 11.2 µM [activator, partial curve]",
CCOC(=O)CC(=O)CSc1nc2c(cc1C#N)CCC2,"inconclusive: 22.4 µM [inhibitor, single point]",
O=c1c2ccccc2sn1-c1cc(S(=O)(=O)N2CCOCC2)ccc1N1CCCC1,,inactive: 1.87%
O=C(CSc1ncccn1)Nc1ncc(C(F)(F)F)cc1Cl,"inconclusive: 6.31 µM [inhibitor, single point]",
Cc1ccc(S(=O)(=O)NCc2ccccn2)c(C)c1C,"inconclusive: 5.01 µM [inhibitor, single point]",
Nc1ncnc2nc(SCCOc3ccc(Cl)cc3)[nH]c12,"inconclusive: 35.5 µM [activator, single point]",
CCc1nnc(NC(=O)CSc2nnc(-c3ccccc3OC)n2-c2ccccc2)s1,"inconclusive: 12.6 µM [activator, partial curve]",
CCOc1ccc(Nc2nc(Cc3nnc(SCC(=O)N(CC)CC)n3C)cs2)cc1,"inconclusive: 10 µM [inhibitor, partial curve, poor fit]",
CCOc1cc(/C=N/Nc2nc(N3CCCCC3)nc(N3CCCCC3)n2)ccc1OC(=O)c1ccco1,"inconclusive: 35.5 µM [inhibitor, single point]",
CC(C)(C)C(=O)OCc1nc(-c2ccc(C(F)(F)F)cc2)cs1,,inactive: 43.3%
CCOc1cccc(-c2c(C(=O)N/N=C/c3ccoc3)nnn2-c2nonc2N)c1,active: 10 µM,
CCCCCn1c(=O)c(F)cn(Cc2ccc(OC)c([N+](=O)[O-])c2)c1=O,"inconclusive: 17.8 µM [activator, single point]",
Cc1cc(-c2n[nH]c(=S)n2Cc2ccco2)nn1C,"inconclusive: 17.8 µM [inhibitor, single point]",
Cc1nn(Cc2ccccc2)c(C)c1NC(=O)c1ccc([N+](=O)[O-])cc1[N+](=O)[O-],"inconclusive: 12.6 µM [inhibitor, partial curve, poor fit]",

# (listing goes on)

SMILES,Potency,"activity change, negative = inhibition"
COc1ccc(NC(=O)c2cccnc2N2CCCCC2)cc1,"inconclusive: 3.16 µM [activator, partial curve]",
Fc1cccc(CN2CCN(Cc3nc(CCc4ccccc4)no3)CC2)c1,,inactive: 4.44%
COc1ccc(Nc2nc(C(=O)N3CCc4cc(OC)c(OC)cc4C3)cs2)cc1,"inconclusive: 15.8 µM [activator, single point]",
Cc1cccc(C(=O)O/N=C(\N)Cc2ccc([N+](=O)[O-])cc2)c1,"inconclusive: 2.82 µM [inhibitor, partial curve]",
N#CC1=C(N)S[C@H](C(=O)C23CC4CC(CC(C4)C2)C3)[C@H]1c1ccncc1,"inconclusive: 35.5 µM [inhibitor, single point]",
CCN(CC)S(=O)(=O)c1ccc2nc(NC(=O)c3cccs3)sc2c1,,inactive: -38.6%
CCOc1ccc(OCc2ccc(C(=O)NC(C)C)o2)cc1,"inconclusive: 10 µM [activator, partial curve, poor fit]",
C=CCn1c(C)c(C(C)=O)c(N2CCOCC2)nc1=S,"inconclusive: 35.5 µM [inhibitor, single point]",
OCCCn1c(CCCNc2nc(-c3cccc(Br)c3)cs2)nc2cc(Cl)c(N3CCCCC3)cc21,,inactive: -8.53%
C=CS(=O)c1sc(Cl)c(N2CCOCC2)c1[N+](=O)[O-] (centres undefined),active: 4.47 µM,
Cn1c(=O)c2c(nc(Br)n2CCSc2nnnn2-c2ccccc2)n(C)c1=O,,inactive: 4.82%
COc1ccc(Cl)cc1-c1n[nH]c(=S)n1Cc1ccccc1,active: 5.01 µM,
CC(=O)OC(C(=O)NC1CCCCC1)c1ccccc1 (centres undefined),,inactive: -6.92% [at 10 µM]
O=C(Nc1ccccc1C(=O)N1CCCCC1)NC1CCCCC1,,inactive: 1.57%
CC(C)OCC(O)CN (centres undefined),,inactive: -18.4%
O=C1CC(SCc2nc3ccccc3[nH]2)C(=O)N1c1ccc(F)cc1 (centres undefined),"inconclusive: 35.5 µM [inhibitor, single point]",
COc1cccc(CN(Cc2cccnc2)S(=O)(=O)c2ccc(-n3cnnn3)c(C)c2)c1OC,"inconclusive: 14.1 µM [activator, single point]",
CN1CCN(C(=S)Nc2ccc(Oc3ccccc3)cc2)CC1,active: 11.2 µM,
Cc1ccc(NC(=S)NCc2ccc(Cl)cc2)c(OC(F)F)c1,active: 6.31 µM,
COc1ccc(C(=O)Nc2ccc(NC(=O)c3cccs3)cn2)cc1,active: 0.224 µM,
C[C@@H]1/C=C\CC(=O)OC[C@H](C)C(=O)N[C@@H](Cc2ccccc2)C(=O)OC1,,inactive: 7.37% [at 10 µM]
O=c1[nH]c(C2CCN(S(=O)(=O)c3ccc(S(=O)(=O)NC4CC4)cc3)CC2)nc2c1nnn2Cc1ccc(F)cc1,"inconclusive: 31.6 µM [activator, single point]",
COc1ccc(CN2CCn3ncc(C(=O)Nc4ccc(Cl)cc4Cl)c3C2=O)cc1,,inactive: -17.8%
CCOC(=O)N1CCN(C(=O)CSc2nnc(Cc3cccn3C)n2CCc2ccccc2)CC1,"inconclusive: 5.62 µM [inhibitor, single point]",
Cc1c(C(=O)N2CCCCC2)c(S(=O)(=O)N2c3ccccc3CC2C)c(C)n1C (centres undefined),,inactive: -4.24%

SMILES,Potency,"activity change, negative = inhibition"
COC(=O)/C=C\c1cc(O)ccc1O,active: 14.1 µM,
CC(=O)Nc1ccc(-c2csc(NCc3ccco3)n2)cc1,"inconclusive: 1.58 µM [activator, partial curve]",
O=C(CSc1nc2ccc([N+](=O)[O-])cc2[nH]1)c1ccc(Cl)cc1,"inconclusive: 35.5 µM [inhibitor, single point]",
CC(C)(C)n1ncc2c(=O)n(CC(=O)OCc3ccccc3)cnc21,active: 8.91 µM,
CCCCNC(=O)c1cccnc1SCC(=O)Nc1ccccc1OC,"inconclusive: 22.4 µM [activator, single point]",
C[C@H](NC(=O)c1nc[nH]c1C(=O)N1CCN(C(=O)OC(C)(C)C)CC1)C(=O)OCc1ccccc1,"inconclusive: 35.5 µM [inhibitor, single point]",
O=C(NCc1ccncc1)c1nc(-c2cccs2)no1,,inactive: 16.5%
COc1ccc(NC(=S)Nc2cc(C(F)(F)F)ccc2F)cc1,"inconclusive: 12.6 µM [inhibitor, single point]",
CC(C)Cn1c(-c2ccncc2)n[nH]c1=S,"inconclusive: 15.8 µM [inhibitor, single point]",
CCOc1ccc(C(O)(c2ccccc2OC)C(CN2CCCC2)c2ccccc2)cc1 (centres undefined),,inactive: -6.28%
COc1ccc(C(OCCN2CCC[C@H](C(=O)O)C2)(c2ccc(OC)cc2)c2ccc(OC)cc2)cc1,,inactive: 26.1%
CCOC(=O)c1c(NC(=S)Nc2cccnc2)sc(C)c1C,active: 12.6 µM,
CCc1nnc(NC(=O)CSc2ccc(-c3nc4ccc(C)cc4[nH]3)cn2)s1,"inconclusive: 0.891 µM [activator, full curve]",
CCOC(=O)c1sc2nc3n(c(=O)c2c1C)CCC(C)CC3 (centres undefined),,inactive: 15.2%
Cc1ccc2cccc(OCC(=O)NCc3ccco3)c2n1,,inactive: 11.2%
COc1ccc(F)cc1C(=O)C1CCCN(Cc2cccn2-c2ccccn2)C1 (centres undefined),,inactive: 0.107%
COc1cccc(NC(=O)c2nnn(CCc3ccccc3)c2N)c1,"inconclusive: 2.24 µM [activator, partial curve]",
CCCCNC(=O)c1cn(CC)c2ccc(S(=O)(=O)N3CCCC3)cc2c1=O,,inactive: 9.43%
CC(SCc1ccccc1)C(=O)N/N=C/c1ccc2c(c1)OCO2 (centres undefined),"inconclusive: 35.5 µM [activator, single point]",
N#CC1=C2N=C(N)c3c(sc4c3CCCCC4)N2C2=C(C(=O)CCC2)C1c1ccccc1 (centres undefined),active: 11.2 µM,
COc1ccc(C(=O)c2cnc3cc4c(cc3c2C)OCO4)cc1,"inconclusive: 35.5 µM [activator, single point]",
Cc1ccc(-c2nc(N)sc2-c2ccc(C)cc2)cc1,"inconclusive: 11.2 µM [inhibitor, partial curve]",
O=C(O)c1ccc2c(c1)C(=O)N(N1C(=O)c3ccccc3C1=O)C2=O,,inactive: 29.2%
CC1(C)Cc2c(sc3ncnc(NN)c23)CO1,"inconclusive: 22.4 µM [inhibitor, single point]",
